# Data taken from the supplement of paper PMC12819154, “High-throughput peptide-centric local stability assay extends protein–ligand identification to membrane proteins, tissues and bacteria” (Nature Structural & Molecular Biology, 2025).
# Sequences of proteins named here, by UniProt entry; tags and fusion partners are left off. A change or cut given only in a name is not applied to a line headed by its entry.
# UniProt Q8BHN7: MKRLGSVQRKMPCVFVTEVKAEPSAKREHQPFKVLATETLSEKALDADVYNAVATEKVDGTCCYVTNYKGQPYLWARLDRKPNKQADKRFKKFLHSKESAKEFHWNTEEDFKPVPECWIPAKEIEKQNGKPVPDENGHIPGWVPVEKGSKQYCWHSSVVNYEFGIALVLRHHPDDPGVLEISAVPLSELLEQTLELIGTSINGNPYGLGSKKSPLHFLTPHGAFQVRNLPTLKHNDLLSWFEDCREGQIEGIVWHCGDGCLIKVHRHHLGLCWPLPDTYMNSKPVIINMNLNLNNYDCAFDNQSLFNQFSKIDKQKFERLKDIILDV
# UniProt Q8BHJ9: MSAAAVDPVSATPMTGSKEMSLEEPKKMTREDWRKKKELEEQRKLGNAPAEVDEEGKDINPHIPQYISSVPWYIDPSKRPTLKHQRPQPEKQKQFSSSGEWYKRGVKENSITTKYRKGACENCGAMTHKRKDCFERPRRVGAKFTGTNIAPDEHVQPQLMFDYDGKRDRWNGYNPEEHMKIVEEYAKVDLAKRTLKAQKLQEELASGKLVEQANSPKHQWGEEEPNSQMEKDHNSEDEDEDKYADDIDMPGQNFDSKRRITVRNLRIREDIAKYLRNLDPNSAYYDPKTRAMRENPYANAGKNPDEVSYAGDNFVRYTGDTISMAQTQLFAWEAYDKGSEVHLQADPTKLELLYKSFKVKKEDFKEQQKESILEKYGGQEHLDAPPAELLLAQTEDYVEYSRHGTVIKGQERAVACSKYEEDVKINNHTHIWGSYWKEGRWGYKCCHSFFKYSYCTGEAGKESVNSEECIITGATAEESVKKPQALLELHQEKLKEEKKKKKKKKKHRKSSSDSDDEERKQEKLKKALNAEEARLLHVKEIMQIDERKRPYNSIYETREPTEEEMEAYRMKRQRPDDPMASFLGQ
# UniProt Q8BHN5: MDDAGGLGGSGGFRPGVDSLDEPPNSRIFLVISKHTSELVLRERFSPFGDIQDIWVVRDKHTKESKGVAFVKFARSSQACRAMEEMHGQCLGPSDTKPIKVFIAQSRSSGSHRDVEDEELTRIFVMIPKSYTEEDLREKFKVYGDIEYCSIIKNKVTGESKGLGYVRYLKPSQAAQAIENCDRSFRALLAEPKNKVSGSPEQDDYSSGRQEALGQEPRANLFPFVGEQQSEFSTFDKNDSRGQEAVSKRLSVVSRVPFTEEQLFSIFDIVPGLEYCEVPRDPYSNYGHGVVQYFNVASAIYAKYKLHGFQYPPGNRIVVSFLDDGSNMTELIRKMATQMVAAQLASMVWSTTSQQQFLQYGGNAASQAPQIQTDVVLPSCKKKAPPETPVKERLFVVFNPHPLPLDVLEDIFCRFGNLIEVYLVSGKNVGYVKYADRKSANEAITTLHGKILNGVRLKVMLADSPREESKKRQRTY
# UniProt Q8BGU5: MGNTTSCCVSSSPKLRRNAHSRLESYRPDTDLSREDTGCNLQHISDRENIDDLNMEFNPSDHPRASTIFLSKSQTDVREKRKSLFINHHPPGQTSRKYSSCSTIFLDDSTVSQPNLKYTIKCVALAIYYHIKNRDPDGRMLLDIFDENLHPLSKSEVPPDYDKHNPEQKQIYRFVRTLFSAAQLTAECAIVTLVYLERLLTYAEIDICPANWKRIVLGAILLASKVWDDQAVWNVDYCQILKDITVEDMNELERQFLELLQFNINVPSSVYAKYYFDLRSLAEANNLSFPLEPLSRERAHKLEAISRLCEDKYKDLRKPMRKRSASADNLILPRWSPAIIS
# UniProt Q8BFS9: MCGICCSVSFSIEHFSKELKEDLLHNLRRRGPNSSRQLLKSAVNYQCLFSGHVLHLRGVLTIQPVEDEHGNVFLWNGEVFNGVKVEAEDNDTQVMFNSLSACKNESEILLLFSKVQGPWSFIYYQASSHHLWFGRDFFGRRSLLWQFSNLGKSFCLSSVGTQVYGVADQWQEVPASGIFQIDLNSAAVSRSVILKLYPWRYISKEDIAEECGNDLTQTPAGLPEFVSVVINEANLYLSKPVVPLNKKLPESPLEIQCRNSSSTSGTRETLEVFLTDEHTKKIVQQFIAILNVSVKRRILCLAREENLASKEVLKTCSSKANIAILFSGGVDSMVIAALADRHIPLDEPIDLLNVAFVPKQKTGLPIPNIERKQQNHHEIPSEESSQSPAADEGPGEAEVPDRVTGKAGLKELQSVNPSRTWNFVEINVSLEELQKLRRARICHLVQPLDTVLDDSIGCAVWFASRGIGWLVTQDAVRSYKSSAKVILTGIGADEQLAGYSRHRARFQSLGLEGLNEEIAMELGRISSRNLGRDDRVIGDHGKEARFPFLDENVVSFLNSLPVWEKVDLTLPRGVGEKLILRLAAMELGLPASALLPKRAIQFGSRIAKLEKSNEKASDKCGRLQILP
# UniProt Q810J8: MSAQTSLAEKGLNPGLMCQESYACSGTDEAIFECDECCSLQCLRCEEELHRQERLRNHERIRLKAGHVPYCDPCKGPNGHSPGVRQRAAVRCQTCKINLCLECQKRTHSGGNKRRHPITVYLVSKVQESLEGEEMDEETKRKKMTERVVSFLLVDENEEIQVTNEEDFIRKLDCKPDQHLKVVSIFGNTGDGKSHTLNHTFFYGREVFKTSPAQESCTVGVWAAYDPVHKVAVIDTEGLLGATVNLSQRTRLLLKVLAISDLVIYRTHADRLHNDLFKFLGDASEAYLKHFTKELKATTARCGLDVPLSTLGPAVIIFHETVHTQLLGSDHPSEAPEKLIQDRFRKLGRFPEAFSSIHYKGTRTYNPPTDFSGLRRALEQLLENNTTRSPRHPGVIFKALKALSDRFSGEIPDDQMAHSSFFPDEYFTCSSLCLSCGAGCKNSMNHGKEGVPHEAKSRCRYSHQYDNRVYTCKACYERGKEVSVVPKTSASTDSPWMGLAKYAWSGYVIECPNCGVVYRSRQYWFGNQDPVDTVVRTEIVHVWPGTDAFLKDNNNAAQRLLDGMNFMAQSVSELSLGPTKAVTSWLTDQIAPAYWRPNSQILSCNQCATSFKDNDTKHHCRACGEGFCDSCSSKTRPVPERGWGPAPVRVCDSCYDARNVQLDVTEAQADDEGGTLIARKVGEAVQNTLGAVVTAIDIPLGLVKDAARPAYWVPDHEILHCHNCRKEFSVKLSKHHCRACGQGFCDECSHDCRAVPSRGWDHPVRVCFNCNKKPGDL
# UniProt Q80XC2: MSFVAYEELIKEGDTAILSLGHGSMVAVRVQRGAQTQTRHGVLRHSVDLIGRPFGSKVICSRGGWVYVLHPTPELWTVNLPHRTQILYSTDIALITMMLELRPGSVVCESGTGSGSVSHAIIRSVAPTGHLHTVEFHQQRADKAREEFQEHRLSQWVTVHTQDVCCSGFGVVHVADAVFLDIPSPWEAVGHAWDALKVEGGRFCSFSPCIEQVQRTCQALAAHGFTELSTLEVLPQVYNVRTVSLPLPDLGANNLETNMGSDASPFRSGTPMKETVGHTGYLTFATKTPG
# UniProt Q8BGN9: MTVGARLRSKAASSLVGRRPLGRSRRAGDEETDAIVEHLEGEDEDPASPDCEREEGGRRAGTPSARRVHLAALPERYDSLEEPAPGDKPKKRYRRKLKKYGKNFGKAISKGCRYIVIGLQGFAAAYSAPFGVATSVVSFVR
# UniProt Q80YD1: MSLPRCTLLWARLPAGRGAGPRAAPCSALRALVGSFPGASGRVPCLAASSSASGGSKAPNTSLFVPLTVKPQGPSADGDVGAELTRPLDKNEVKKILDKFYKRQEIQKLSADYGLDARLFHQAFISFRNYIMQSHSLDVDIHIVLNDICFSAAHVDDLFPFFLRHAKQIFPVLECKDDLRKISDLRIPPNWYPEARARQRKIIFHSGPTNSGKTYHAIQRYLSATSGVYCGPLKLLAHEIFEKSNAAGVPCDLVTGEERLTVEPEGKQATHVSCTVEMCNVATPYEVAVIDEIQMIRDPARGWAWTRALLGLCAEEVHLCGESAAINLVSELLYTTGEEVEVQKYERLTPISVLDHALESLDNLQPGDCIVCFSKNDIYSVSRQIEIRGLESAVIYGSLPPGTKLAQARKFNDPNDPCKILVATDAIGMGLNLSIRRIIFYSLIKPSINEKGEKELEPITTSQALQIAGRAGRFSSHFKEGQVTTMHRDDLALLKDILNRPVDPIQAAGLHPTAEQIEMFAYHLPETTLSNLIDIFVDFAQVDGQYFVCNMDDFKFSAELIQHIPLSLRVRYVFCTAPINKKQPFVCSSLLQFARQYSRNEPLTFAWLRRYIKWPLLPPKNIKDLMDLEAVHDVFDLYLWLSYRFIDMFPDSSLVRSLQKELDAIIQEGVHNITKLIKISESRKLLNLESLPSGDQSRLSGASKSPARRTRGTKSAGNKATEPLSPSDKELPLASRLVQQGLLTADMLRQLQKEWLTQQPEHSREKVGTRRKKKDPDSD
# UniProt Q80X53: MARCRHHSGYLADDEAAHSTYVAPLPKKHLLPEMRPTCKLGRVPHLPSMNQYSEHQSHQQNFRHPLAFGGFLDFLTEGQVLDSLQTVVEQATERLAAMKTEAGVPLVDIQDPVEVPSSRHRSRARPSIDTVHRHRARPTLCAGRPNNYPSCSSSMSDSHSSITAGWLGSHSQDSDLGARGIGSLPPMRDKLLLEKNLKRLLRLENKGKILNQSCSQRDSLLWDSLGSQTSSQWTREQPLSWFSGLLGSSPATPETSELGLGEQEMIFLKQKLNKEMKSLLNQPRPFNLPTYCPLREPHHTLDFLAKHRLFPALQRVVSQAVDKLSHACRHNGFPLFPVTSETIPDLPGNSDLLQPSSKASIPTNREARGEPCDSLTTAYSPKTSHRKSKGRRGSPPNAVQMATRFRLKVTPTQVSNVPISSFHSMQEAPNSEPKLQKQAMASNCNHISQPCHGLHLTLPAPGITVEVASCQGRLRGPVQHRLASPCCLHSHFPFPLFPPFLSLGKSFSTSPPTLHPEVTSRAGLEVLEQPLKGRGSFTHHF
# UniProt Q80YV2: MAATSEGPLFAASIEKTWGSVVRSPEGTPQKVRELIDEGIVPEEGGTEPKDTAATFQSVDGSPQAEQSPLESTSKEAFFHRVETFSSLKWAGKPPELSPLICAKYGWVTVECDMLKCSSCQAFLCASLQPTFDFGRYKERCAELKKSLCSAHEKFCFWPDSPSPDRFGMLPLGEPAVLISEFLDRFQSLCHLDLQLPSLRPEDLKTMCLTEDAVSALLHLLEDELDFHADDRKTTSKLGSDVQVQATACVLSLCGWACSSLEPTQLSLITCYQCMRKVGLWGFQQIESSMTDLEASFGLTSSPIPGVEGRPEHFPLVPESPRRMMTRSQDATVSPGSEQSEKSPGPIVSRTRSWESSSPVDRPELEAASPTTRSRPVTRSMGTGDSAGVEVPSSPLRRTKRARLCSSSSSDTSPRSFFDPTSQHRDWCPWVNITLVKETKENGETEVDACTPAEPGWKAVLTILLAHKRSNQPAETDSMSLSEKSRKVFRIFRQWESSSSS
# UniProt Q8BGB2: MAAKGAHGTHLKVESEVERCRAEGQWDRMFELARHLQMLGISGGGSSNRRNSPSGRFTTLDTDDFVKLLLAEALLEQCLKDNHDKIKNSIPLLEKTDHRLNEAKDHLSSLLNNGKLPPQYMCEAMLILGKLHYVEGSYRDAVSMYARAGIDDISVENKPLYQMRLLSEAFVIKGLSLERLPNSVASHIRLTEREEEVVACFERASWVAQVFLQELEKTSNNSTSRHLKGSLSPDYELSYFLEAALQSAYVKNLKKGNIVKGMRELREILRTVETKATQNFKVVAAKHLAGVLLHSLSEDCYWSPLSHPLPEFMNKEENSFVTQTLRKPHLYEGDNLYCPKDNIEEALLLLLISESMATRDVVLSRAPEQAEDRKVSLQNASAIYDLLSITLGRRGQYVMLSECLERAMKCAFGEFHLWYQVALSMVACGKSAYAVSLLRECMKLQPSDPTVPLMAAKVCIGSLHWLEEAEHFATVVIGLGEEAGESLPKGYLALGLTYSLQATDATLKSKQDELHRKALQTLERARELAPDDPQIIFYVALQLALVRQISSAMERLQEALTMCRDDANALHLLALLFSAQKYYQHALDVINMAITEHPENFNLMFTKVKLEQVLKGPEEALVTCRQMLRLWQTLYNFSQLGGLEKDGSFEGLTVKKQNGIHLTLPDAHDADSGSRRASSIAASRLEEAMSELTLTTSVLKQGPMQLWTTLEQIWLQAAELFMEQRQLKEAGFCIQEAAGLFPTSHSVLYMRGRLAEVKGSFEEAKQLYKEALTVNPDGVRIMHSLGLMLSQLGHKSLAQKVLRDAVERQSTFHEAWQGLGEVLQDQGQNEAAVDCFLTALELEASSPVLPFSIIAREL
# UniProt Q8BHC0: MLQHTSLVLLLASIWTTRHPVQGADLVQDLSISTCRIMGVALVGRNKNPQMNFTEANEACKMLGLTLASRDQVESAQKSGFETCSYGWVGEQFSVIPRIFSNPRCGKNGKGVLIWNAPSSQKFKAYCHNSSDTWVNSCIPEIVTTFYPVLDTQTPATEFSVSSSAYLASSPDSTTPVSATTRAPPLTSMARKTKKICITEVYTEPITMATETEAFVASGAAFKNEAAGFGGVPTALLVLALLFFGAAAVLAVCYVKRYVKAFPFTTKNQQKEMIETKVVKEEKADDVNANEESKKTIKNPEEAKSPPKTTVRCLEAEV
# The list shows a part of the results. Small differences around the control level are noise.
# Compound: CN[C@@H]1C[C@H]2O[C@@](C)([C@@H]1OC)n1c3ccccc3c3c4c(c5c6ccccc6n2c5c31)C(=O)NC4 [staurosporine]
# Assay: log2 fold change of tryptic peptide abundance, ligand vs vehicle (limited proteolysis) (log2 ratio); higher = more trypsin-susceptible (destabilized)
# Settings: ligand concentration: 20 uM; sample: mouse liver crude lysate; replicate design: treated separately
row,Target,log2 fold change
1,"UniProt Q8BHN7 (peptide sequence: GQPYLWAR, peptide start residue: 70)",-0.27
2,"UniProt Q8BH97 (peptide sequence: DVAKEFDK, peptide start residue: 63)",-0.278
3,"UniProt Q8BHJ9 (peptide sequence: GVKENSITTK, peptide start residue: 105)",-0.898
4,"UniProt Q8BHN5 (peptide sequence: AMEEMHGQCLGPSDTKPIK, peptide start residue: 82)",0.719
5,"UniProt Q8BHL7 (peptide sequence: LGCCVVEKPQPK, peptide start residue: 8)",-0.134
6,"UniProt Q8BG80 (peptide sequence: VAEAVAHFEAQR, peptide start residue: 227)",0.0337
7,"UniProt Q8BGZ3 (peptide sequence: HNVSPVPVYAHITHK, peptide start residue: 224)",0.335
8,"UniProt Q8BHG2 (peptide sequence: LMDSVALK, peptide start residue: 48)",0.14
9,"UniProt Q8BG79 (peptide sequence: TQVLEQSK, peptide start residue: 182)",-0.2
10,"UniProt Q80YC5 (peptide sequence: TNTMGCGQRFRK, peptide start residue: 336)",0.202
11,"UniProt Q8BGU5 (peptide sequence: SLFINHHPPGQTSR, peptide start residue: 83)",-0.219
12,"UniProt Q8BGT6 (peptide sequence: GAKPVRPPAPGHGFPLIK, peptide start residue: 660)",0.347
13,"UniProt Q8BFS9 (peptide sequence: SAVNYQCLFSGHVLHLR, peptide start residue: 41)",0.592
14,"UniProt Q8BHD7 (peptide sequence: SQPVYIQYSNHR, peptide start residue: 94)",-0.122
15,"UniProt Q810J8 (peptide sequence: VLAISDLVIYR, peptide start residue: 256)",0.308
16,"UniProt Q8BGA7 (peptide sequence: TPVVYCVR, peptide start residue: 140)",0.381
17,"UniProt Q80XC2 (peptide sequence: HSVDLIGRPFGSK, peptide start residue: 45)",0.082
18,"UniProt Q8BHE1 (peptide sequence: QQQLDAER, peptide start residue: 156)",0.203

row,Target,log2 fold change
1,"UniProt Q810L4 (peptide sequence: KTNLFTHMASMGPR, peptide start residue: 213)",0.474
2,"UniProt Q8BG17 (peptide sequence: EYLTGFHKR, peptide start residue: 30)",0.328
3,"UniProt Q8BGN9 (peptide sequence: VHLAALPERYDSLEEPAPGDKPK, peptide start residue: 68)",-0.0533
4,"UniProt Q8BGW2 (peptide sequence: QHEINLIAYR, peptide start residue: 76)",0.378
5,"UniProt Q8BHD8 (peptide sequence: YYLLYYR, peptide start residue: 351)",-0.415
6,"UniProt Q80ZS3 (peptide sequence: ENLEARIEEALDSPKSYNWAVTK, peptide start residue: 171)",0.547
7,"UniProt Q8BGI4 (peptide sequence: KLHDFEDNFFR, peptide start residue: 638)",0.787
8,"UniProt Q80XC6 (peptide sequence: SQLSLSWLR, peptide start residue: 739)",0.37
9,"UniProt Q8BH66 (peptide sequence: ILLSQAVR, peptide start residue: 56)",0.387
10,"UniProt Q8BGW1 (peptide sequence: LFTVPWPVKGCTVK, peptide start residue: 113)",-0.717
11,"UniProt Q80YD1 (peptide sequence: NDIYSVSR, peptide start residue: 376)",-0.202
12,"UniProt Q80X53 (peptide sequence: PSIDTVHR, peptide start residue: 126)",0.423
13,"UniProt Q80YV2 (peptide sequence: WAGKPPELSPLICAK, peptide start residue: 90)",0.143
14,"UniProt Q80XL1 (peptide sequence: DVNQDVFR, peptide start residue: 104)",0.38
15,"UniProt Q8BGB2 (peptide sequence: NSIPLLEK, peptide start residue: 88)",-0.174
16,"UniProt Q80WW9 (peptide sequence: AAAADGEPLHNEEER, peptide start residue: 28)",0.388
17,"UniProt Q8BHC0 (peptide sequence: TIKNPEEAK, peptide start residue: 296)",-0.164
18,"UniProt Q80XI4 (peptide sequence: DLPTFKDNDFLNEGQK, peptide start residue: 234)",0.176

# As a working copy, some entries already given:
row,Target,log2 fold change
13,"UniProt Q80YV2 (peptide sequence: WAGKPPELSPLICAK, peptide start residue: 90)",0.143
14,"UniProt Q80XL1 (peptide sequence: DVNQDVFR, peptide start residue: 104)",0.38
15,"UniProt Q8BGB2 (peptide sequence: NSIPLLEK, peptide start residue: 88)",-0.174
